PMC7291584

The chains behind the UniProt entries cited, without tags or fusion partners. Residues count along the entry.
UniProt Q07955: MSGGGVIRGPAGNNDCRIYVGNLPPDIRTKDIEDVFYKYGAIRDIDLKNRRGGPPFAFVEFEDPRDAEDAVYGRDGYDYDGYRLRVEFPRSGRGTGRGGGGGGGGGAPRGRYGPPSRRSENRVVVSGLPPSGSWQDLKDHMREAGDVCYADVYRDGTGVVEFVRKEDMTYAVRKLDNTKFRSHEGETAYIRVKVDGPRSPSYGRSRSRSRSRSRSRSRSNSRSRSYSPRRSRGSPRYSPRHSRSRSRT
UniProt Q13443, residues 29-819: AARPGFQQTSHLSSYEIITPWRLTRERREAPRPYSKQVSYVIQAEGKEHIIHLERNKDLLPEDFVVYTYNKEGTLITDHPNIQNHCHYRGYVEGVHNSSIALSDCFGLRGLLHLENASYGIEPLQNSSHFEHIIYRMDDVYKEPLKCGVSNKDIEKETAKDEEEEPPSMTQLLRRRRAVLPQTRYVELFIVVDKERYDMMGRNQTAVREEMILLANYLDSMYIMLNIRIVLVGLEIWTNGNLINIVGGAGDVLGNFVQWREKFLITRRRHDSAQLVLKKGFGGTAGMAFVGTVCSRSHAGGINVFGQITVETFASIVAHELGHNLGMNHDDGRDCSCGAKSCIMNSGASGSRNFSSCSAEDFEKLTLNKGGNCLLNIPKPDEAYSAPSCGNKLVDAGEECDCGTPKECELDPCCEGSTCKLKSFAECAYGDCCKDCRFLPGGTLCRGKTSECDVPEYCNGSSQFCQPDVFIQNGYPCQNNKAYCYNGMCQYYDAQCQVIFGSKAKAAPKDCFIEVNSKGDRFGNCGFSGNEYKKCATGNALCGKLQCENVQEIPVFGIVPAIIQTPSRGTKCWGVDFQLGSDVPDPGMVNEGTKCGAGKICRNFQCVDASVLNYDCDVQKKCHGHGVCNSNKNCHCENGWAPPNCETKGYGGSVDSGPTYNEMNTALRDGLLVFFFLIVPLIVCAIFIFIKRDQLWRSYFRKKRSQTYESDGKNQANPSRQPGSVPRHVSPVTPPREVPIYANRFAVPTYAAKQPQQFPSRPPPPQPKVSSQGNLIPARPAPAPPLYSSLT
UniProt Q14676: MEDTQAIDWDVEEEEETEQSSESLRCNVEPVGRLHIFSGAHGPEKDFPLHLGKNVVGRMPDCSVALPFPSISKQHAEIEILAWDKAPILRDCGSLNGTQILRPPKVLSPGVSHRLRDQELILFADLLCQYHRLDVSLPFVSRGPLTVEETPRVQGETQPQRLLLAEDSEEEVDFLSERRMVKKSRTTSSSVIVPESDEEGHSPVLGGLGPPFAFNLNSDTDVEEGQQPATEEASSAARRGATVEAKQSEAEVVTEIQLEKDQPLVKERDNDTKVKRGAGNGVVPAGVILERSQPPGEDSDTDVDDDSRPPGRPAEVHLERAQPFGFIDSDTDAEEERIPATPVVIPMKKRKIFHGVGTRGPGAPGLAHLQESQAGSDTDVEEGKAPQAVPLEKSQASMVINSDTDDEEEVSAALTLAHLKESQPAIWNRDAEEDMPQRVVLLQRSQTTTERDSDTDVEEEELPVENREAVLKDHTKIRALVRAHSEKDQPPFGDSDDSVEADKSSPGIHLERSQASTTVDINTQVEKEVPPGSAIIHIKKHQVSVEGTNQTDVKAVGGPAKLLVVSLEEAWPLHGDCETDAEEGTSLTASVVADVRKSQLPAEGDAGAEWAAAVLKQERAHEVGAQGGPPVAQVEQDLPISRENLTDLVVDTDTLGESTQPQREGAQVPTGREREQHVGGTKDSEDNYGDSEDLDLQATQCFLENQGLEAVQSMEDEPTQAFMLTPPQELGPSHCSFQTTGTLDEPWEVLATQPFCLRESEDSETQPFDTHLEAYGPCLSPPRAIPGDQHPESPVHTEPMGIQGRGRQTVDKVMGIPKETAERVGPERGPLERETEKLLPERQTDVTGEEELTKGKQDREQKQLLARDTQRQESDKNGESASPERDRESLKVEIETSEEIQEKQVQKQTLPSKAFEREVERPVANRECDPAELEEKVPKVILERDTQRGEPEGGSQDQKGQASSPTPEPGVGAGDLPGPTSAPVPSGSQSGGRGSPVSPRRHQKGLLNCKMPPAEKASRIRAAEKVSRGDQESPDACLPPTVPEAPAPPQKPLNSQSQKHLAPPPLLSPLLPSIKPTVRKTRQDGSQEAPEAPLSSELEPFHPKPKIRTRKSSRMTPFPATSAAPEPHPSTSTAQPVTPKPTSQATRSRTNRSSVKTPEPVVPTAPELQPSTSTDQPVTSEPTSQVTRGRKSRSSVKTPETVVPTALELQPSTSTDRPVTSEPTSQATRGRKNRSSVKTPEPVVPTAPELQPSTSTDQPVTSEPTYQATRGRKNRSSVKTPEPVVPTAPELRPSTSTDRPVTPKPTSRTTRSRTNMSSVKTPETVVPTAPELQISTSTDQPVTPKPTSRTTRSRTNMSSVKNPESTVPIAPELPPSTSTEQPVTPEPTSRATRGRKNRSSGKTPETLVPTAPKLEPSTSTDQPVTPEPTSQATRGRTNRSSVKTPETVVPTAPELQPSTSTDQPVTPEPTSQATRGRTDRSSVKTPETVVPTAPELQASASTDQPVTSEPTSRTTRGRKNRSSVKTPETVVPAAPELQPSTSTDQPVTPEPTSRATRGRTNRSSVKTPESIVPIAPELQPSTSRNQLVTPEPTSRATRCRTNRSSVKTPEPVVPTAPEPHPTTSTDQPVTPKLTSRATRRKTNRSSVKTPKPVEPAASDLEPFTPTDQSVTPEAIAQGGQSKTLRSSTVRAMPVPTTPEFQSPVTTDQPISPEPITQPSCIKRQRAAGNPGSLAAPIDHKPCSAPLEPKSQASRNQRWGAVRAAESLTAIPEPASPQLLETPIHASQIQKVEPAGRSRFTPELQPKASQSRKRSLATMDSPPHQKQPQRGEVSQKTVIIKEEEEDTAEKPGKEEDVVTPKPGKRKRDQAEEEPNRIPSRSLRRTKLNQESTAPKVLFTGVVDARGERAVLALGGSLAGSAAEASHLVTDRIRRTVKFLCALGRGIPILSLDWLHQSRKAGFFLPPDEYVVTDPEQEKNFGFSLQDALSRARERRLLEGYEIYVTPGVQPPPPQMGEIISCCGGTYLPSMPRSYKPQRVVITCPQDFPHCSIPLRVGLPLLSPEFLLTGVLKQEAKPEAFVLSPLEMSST

B1: spectrin repeat containing nuclear envelope family member 3 (SYNE3) (protein, UniProt Q6ZMZ3 1-975)
chain: MTQQPQDDFDRSVEDAQAWMKAVQDQLQVNDNTQGPRAALEARLWETEKICQLEPEGRVRVDLVLRMAEALLACCPGDQKPGILARLKDIKAQWEETVTYMTHCHSRIEWVWLHWSEYLLARDEFYRWFQKMMVTLEPHIELQLGLKEKQWQLSHAQVLLHNVDNQAVLLDRLLEEAASLFNRIGDPSVDEDAQKRMKAEYDAVKAKAQKRVDLLEQVAREHEEYQAGVDEFQLWLKAVVEKVNGCLGRNCKLPITQRLSTLQDIAKDFPRGEESLETLEEQSAGVIRNTSPLGAEKITGELEEMRKVLEKLRALWEEEEERLRGLLRSRGAWEQQIKQLEAELSEFRMVLQRLAQEGLQPAAKAGTEDELVAHWRRYSATRAALASEEPRVDRLQAQLKELIVFPHNLKPLSDSVIATIQEYQSLKVKSARLRNAAAVELWQHFQRPLQDLQLWKALAQRLLEVTASLPDLPSLHTFLPQIEAALMESSRLKELLTMLQLKKDLLIGIFGQERATALLEQVAGSMRDRDLLHNSLLQRKSKLQSLLAQHKDFGAAFEPLQRKLLDLQVRVQAEKGLQRDLPGKQAQLSRLQGLQEEGLDLGAQMEAARPLVQENPNHQHKMDQLSSDFQALQRSLEDLVDRCRQSVQEHCTFSHQLLELRQWIVVTTQKLEAHRGEAGPGDAESQEAEFERLVAEFPEKEAQLSLVEAQGWLVMEKSSPEGAAVVQEELRELAESWRALRLLEESLLSLIRNWHLQRMEVDSGKKMVFTNNIPKSGFLINPMDPIPRHRRRANLLQEEEGSHEDFSQLLRNFGQWLQVENSKLVRIIAMRTSTAEDLRTRKSKLQELEARVPEGQHLFENLLRLGPARGTSDELEDLRYQWMLYKSKLKDSGHLLTQSSPGEPTGFQKTRRWRGLGSLFRRACCVALPLQLLLLLFLLLLFLLPIREEDRSCTLANNFARSFTLMLRYNGPPPT
B2: Histidine Rich Glycoprotein (HRG) (protein, UniProt P04196 19-525)
chain: VSPTDCSAVEPEAEKALDLINKRRRDGYLFQLLRIADAHLDRVENTTVYYLVLDVQESDCSVLSRKYWNDCEPPDSRRPSEIVIGQCKVIATRHSHESQDLRVIDFNCTTSSVSSALANTKDSPVLIDFFEDTERYRKQANKALEKYKEENDDFASFRVDRIERVARVRGGEGTGYFVDFSVRNCPRHHFPRHPNVFGFCRADLFYDVEALDLESPKNLVINCEVFDPQEHENINGVPPHLGHPFHWGGHERSSTTKPPFKPHGSRDHHHPHKPHEHGPPPPPDERDHSHGPPLPQGPPPLLPMSCSSCQHATFGTNGAQRHSHNNNSSDLHPHKHHSHEQHPHGHHPHAHHPHEHDTHRQHPHGHHPHGHHPHGHHPHGHHPHGHHPHCHDFQDYGPCDPPPHNQGHCCHGHGPPPGHLRRRGPGKGPRPFHCRQIGSVYRLPPLRKGEVLPLPEANFPSFPLPHHKHPLKPDNQPFPQSVSESCPGKFKSGFPQVSMFFTHTFPK

Key:
[1] = biological target: T1, Inhibitor of differentiation 4 (ID4) (human (endogenous in HCC70, MDA-MB-468, HCC1954, OVKATE and patient-derived xenografts)) (UniProt P47928); experiment: affinity purification with mass spectrometry; RIME: cells (HCC70, MDA-MB-468, HCC1954, OVKATE) cross-linked with paraformaldehyde for 7 min, sonicated, IP with anti-ID4 against control IgG, on-bead trypsin digest, nanoLC-MS/MS; biological triplicate
T1 sequence: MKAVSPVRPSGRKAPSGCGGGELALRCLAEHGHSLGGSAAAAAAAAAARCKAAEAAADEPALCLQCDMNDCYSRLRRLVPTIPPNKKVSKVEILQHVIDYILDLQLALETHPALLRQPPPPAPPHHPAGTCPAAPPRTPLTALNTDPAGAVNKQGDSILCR

[2] = biological target: T1, Inhibitor of differentiation 4 (ID4) (human (endogenous in HCC70, MDA-MB-468, HCC1954, OVKATE and patient-derived xenografts)); experiment: affinity purification with mass spectrometry; RIME on PDX tumours HCI001, HCI002, HCI009, cross-linked in 1% formaldehyde at 4 °C for 20 min; anti-ID4 against IgG; discovery MS and SWATH label-free quantification on the same sample

Row | Molecule | binding [1] | binding [2]
1 | SRSF1 (from UniProt Q07955 1-248) | no binding | 
2 | disintegrin and metalloprotease domain 9 protein (ADAM9) (from UniProt Q13443 29-819) | binds | 
3 | mediator of DNA damage checkpoint 1 (MDC1) (from UniProt Q14676 1-2089) | binds | binds
4 | B1 | binds | 
5 | B2 | binds | 

Results are given in words; binding and its absence hold for the method and conditions named. Binding seen in cells or lysates may run through a third protein. A yes stands for co-enrichment or nearness to the bait. Other partners may have been found. For part of these data: No binding means not detected with the bait. For part of these data: Tags and fused reporters may be left off the sequences shown.
